Assay results: the supplement of paper PMC4604168 (melanoma cell lines)
This is one part of the list. Many values rest on one well or one pass, so single values are uncertain.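 Cells were imaged in 1,536-well plates, and nuclei stained with an antibody against cleaved PARP were counted against all DNA-stained nuclei to give the apoptosis fraction. Screening doses were chosen to leave most cells alive, and resting and induced cleaved-PARP levels differ strongly between cell lines.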

How the values were obtained:
Assay in all cases: cleaved PARP positive nuclei fraction relative to DMSO control; melanoma cells; higher = more apoptosis
Conditions in all cases: library dose: low library concentration; 72 h
MZ2-MEL = system: MZ2-MEL
MeWo = system: MeWo
RPMI7951 = system: RPMI7951
RVH-421 = system: RVH-421
SkMel28 = system: SkMel28
SkMel2 = system: SkMel2
SkMel30 = system: SkMel30
SkMel5 = system: SkMel5
UACC257 = system: UACC257
UACC62 = system: UACC62

Compound | cleaved PARP positive nuclei fraction (MZ2-MEL) [%] | cleaved PARP positive nuclei fraction (MeWo) [%] | cleaved PARP positive nuclei fraction (RPMI7951) [%] | cleaved PARP positive nuclei fraction (RVH-421) [%] | cleaved PARP positive nuclei fraction (SkMel28) [%] | cleaved PARP positive nuclei fraction (SkMel2) [%] | cleaved PARP positive nuclei fraction (SkMel30) [%] | cleaved PARP positive nuclei fraction (SkMel5) [%] | cleaved PARP positive nuclei fraction (UACC257) [%] | cleaved PARP positive nuclei fraction (UACC62) [%]
Cn1cc(C2=C(c3cn(C4CCN(Cc5ccccn5)CC4)c4ccccc34)C(=O)NC2=O)c2ccccc21 [Enzastaurin] + O=c1cc(-c2cccc3c2Sc2ccccc2S3)oc(N2CCOCC2)c1 [KU55933] (first compound 0.8 µM, partner dose 1 µM) | 126 | 136 | 109 | 110 | 43.2 | 98.9 | 99.3 | 70.4 | 101 | 114
Cn1cc(C2=C(c3cn(C4CCN(Cc5ccccn5)CC4)c4ccccc34)C(=O)NC2=O)c2ccccc21 [Enzastaurin] + Cc1cc(SCc2sc(-c3ccc(C(F)(F)F)c(F)c3)nc2C)ccc1OCC(=O)O [GW0742] (first compound 0.8 µM, partner dose 2 µM) | 82.9 | 62.4 | 40.6 | 28.2 | 52.6 | 184 | 20 | 75.3 | 74.7 | 83.6
C=CCNC1=C2C[C@@H](C)C[C@H](OC)[C@H](O)[C@@H](C)/C=C(\C)[C@H](OC(N)=O)[C@@H](OC)/C=C\C=C(/C)C(=O)NC(=CC1=O)C2=O [Tanespimycin] + Cc1cc(SCc2sc(-c3ccc(C(F)(F)F)c(F)c3)nc2C)ccc1OCC(=O)O [GW0742] (first compound 0.002 µM, partner dose 2 µM) | 164 | 21.6 | 324 | 116 | 50.3 | 99.5 | 28.3 | 38.9 | 15.2 | 34.8
COc1ccc(C2=N[C@@H](c3ccc(Cl)cc3)[C@@H](c3ccc(Cl)cc3)N2C(=O)N2CCNC(=O)C2)c(OC(C)C)c1 [Nutlin-3] + O=C(Oc1ccc([N+](=O)[O-])cc1)N1CCC(C(O)(c2ccc3c(c2)OCO3)c2ccc3c(c2)OCO3)CC1 [JZL184] (first compound 0.1 µM, partner dose 1 µM) | 225 | 24.8 | 143 | 76.1 | 118 | 177 | 196 | 91.3 | 133 | 78.1
COc1cc([C@@H]2c3cc4c(cc3[C@@H](O[C@@H]3O[C@@H]5CO[C@@H](C)O[C@H]5[C@H](O)[C@H]3O)[C@H]3COC(=O)[C@H]23)OCO4)cc(OC)c1O [etoposide] + C/C(O)=C(\C#N)C(=O)Nc1cc(Br)ccc1Br [LFM-A13] (first compound 0.02 µM, partner dose 2 µM) | 97.5 | 134 | 39.4 | 12.8 | 239 | 71.2 | 25.1 | 139 | 250 | 555
Nc1nc(F)nc2c1ncn2[C@@H]1O[C@H](CO)[C@@H](O)[C@@H]1O [fludarabine] + Cc1cc(SCc2sc(-c3ccc(C(F)(F)F)c(F)c3)nc2C)ccc1OCC(=O)O [GW0742] (first compound 0.2 µM, partner dose 2 µM) | 109 | 1570 | 116 | 49.4 | 170 | 749 | 78.3 | 933 | 147 | 127
N.N.[Cl][Pt][Cl] [cisplatin] + COc1ccc2c(c1)CCC1C2CCC2(C)C(NCCCCCCN3C(=O)C=CC3=O)CCC12 [U73122] (first compound 1.6 µM, partner dose 0.4 µM) | 99.8 | 100 | 79.3 | 76.6 | 71.5 | 58.9 | 28.4 | 78.3 | 182 | 102
CS(=O)(=O)CCNCc1ccc(-c2ccc3ncnc(Nc4ccc(OCc5cccc(F)c5)c(Cl)c4)c3c2)o1 [lapatinib] + O=C(Oc1ccc([N+](=O)[O-])cc1)N1CCC(C(O)(c2ccc3c(c2)OCO3)c2ccc3c(c2)OCO3)CC1 [JZL184] (first compound 0.8 µM, partner dose 1 µM) | 105 | 120 | 78.4 | 27 | 66.9 | 64.2 | 48.2 | 77.1 | 89 | 44.1
C=CCNC1=C2C[C@@H](C)C[C@H](OC)[C@H](O)[C@@H](C)/C=C(\C)[C@H](OC(N)=O)[C@@H](OC)/C=C\C=C(/C)C(=O)NC(=CC1=O)C2=O [Tanespimycin] + C/C(O)=C(\C#N)C(=O)Nc1cc(Br)ccc1Br [LFM-A13] (first compound 0.002 µM, partner dose 2 µM) | 81.1 | 60.8 | 180 | 114 | 101 | 91.2 | 73.8 | 147 | 109 | 73.6
N.N.[Cl][Pt][Cl] [cisplatin] + CC(C)(C)c1cnc(CSc2cnc(NC(=O)C3CCNCC3)s2)o1 [SNS-032] (first compound 1.6 µM, partner dose 0.01 µM) | 121 | 103 | 40.8 | 64.4 | 128 | 98.9 | 63.4 | 133 | 90.6 | 141
Cn1c(=O)n(-c2ccc(C(C)(C)C#N)cc2)c2c3cc(-c4cnc5ccccc5c4)ccc3ncc21 + C/C(O)=C(\C#N)C(=O)Nc1cc(Br)ccc1Br [LFM-A13] (first compound 0.004 µM, partner dose 2 µM) | 146 | 49.9 | 477 | 60.9 | 363 | 117 | 41.2 | 189 | 67.5 | 327
N.N.[Cl][Pt][Cl] [cisplatin] + c1cc(-c2cnn3cc(-c4ccc(OCCN5CCCCC5)cc4)cnc23)ccn1 [Dorsomorphin] (first compound 1.6 µM, partner dose 0.4 µM) | 76.6 | 161 | 71.2 | 134 | 96.3 | 227 | 88.5 | 83.8 | 53 | 76
Cn1c(=O)n(-c2ccc(C(C)(C)C#N)cc2)c2c3cc(-c4cnc5ccccc5c4)ccc3ncc21 + Cc1cc(SCc2sc(-c3ccc(C(F)(F)F)c(F)c3)nc2C)ccc1OCC(=O)O [GW0742] (first compound 0.004 µM, partner dose 2 µM) | 181 | 104 | 238 | 42.6 | 150 | 57.5 | 37.8 | 72.3 | 186 | 114
C=C(c1ccc(C(=O)O)cc1)c1cc2c(cc1C)C(C)(C)CCC2(C)C [Bexarotene] + Cc1cc(SCc2sc(-c3ccc(C(F)(F)F)c(F)c3)nc2C)ccc1OCC(=O)O [GW0742] (first compound 2 µM, partner dose 2 µM) | 151 | 26.3 | 173 | 173 | 195 | 204 | 211 | 164 | 30.5 | 79.4
OCc1c[nH]c2ccccc12 [Indole-3-carbinol] + O=C(Oc1ccc([N+](=O)[O-])cc1)N1CCC(C(O)(c2ccc3c(c2)OCO3)c2ccc3c(c2)OCO3)CC1 [JZL184] (first compound 0.8 µM, partner dose 1 µM) | 46.4 | 27.7 | 30.5 | 223 | 88.8 | 93.4 | 74.2 | 78.6 | 117 | 88.2
C=C(c1ccc(C(=O)O)cc1)c1cc2c(cc1C)C(C)(C)CCC2(C)C [Bexarotene] + O=C(Oc1ccc([N+](=O)[O-])cc1)N1CCC(C(O)(c2ccc3c(c2)OCO3)c2ccc3c(c2)OCO3)CC1 [JZL184] (first compound 2 µM, partner dose 1 µM) | 129 | 20.8 | 32.1 | 71.8 | 233 | 77.9 | 193 | 77.3 | 69.7 | 114
Cn1cc(C2=C(c3cn(C4CCN(Cc5ccccn5)CC4)c4ccccc34)C(=O)NC2=O)c2ccccc21 [Enzastaurin] + O=C(CCCCCCC(=O)Nc1ccccc1)NO [vorinostat] (first compound 0.8 µM, partner dose 0.08 µM) | 94.9 | 38.1 | 106 | 54.5 | 62.1 | 195 | 207 | 6340 | 188 | 126
NC1(c2ccc(-c3nc4ccn5c(=O)[nH]nc5c4cc3-c3ccccc3)cc2)CCC1 + O=C(Oc1ccc([N+](=O)[O-])cc1)N1CCC(C(O)(c2ccc3c(c2)OCO3)c2ccc3c(c2)OCO3)CC1 [JZL184] (first compound 0.4 µM, partner dose 1 µM) | 85.5 | 132 | 198 | 79 | 220 | 30 | 67.7 | 153 | 161 | 173
N.N.[Cl][Pt][Cl] [cisplatin] + O=C1NC(=O)/C(=C/c2ccc(-c3ccc(F)cc3O)o2)S1 [AS252424] (first compound 1.6 µM, partner dose 1 µM) | 71.6 | 169 | 71.4 | 128 | 98.6 | 196 | 362 | 78.7 | 83.4 | 469
CS(=O)(=O)c1ccc(C(=O)Nc2ccc(Cl)c(-c3ccccn3)c2)c(Cl)c1 [vismodegib] + C/C(O)=C(\C#N)C(=O)Nc1cc(Br)ccc1Br [LFM-A13] (first compound 1 µM, partner dose 2 µM) | 91.5 | 60.4 | 41.3 | 79.8 | 87.8 | 96.2 | 60.2 | 33.6 | 163 | 108
Cn1cc(C2=C(c3cn(C4CCN(Cc5ccccn5)CC4)c4ccccc34)C(=O)NC2=O)c2ccccc21 [Enzastaurin] + NC(=O)Nc1cc(-c2cccc(F)c2)sc1C(=O)N[C@H]1CCCNC1 [AZD7762] (first compound 0.8 µM, partner dose 0.02 µM) | 56.6 | 133 | 89.5 | 37.2 | 55.8 | 125 | 110 | 120 | 67.1 | 240

Some values from the results shown:
Entry of OCc1c[nH]c2ccccc12 [Indole-3-carbinol] + O=C(Oc1ccc([N+](=O)[O-])cc1)N1CCC(C(O)(c2ccc3c(c2)OCO3)c2ccc3c(c2)OCO3)CC1 [JZL184] (first compound 0.8 µM, partner dose 1 µM) under cleaved PARP positive nuclei fraction (SkMel28) [%]: 88.8
Entry of Cn1cc(C2=C(c3cn(C4CCN(Cc5ccccn5)CC4)c4ccccc34)C(=O)NC2=O)c2ccccc21 [Enzastaurin] + NC(=O)Nc1cc(-c2cccc(F)c2)sc1C(=O)N[C@H]1CCCNC1 [AZD7762] (first compound 0.8 µM, partner dose 0.02 µM) under cleaved PARP positive nuclei fraction (UACC62) [%]: 240
